Reference: patent US20240108618A1, “KRAS G12C INHIBITOR DOSING REGIMENS” (Eli Lilly and Company, priority 2022, published 2024)

Assays:
[1] = system: KRAS G12C-mutant advanced CRC; assay: NCT04956640 Phase 1b Cohort C2 (with cetuximab) clinical response (BOR, ORR, DCR, DOR, TTR, % change from baseline, treatment duration); settings: human, in vivo
Experimental: (§1) The term “BOR” as used herein refers to best overall response based on investigator assessments using RECIST criteria (version 1.1). The minimum duration for BOR of SD is at least 6 weeks after the date of first dose of study drug.
(§2) The term “DOR” as used herein refers to duration of response, wherein DOR in months is calculated as the event or censoring date minus the response start date plus 1 day divided by 30.4375.
(§3) The term “ORR” as used herein refers to objective response rate, wherein objective response rate is the proportion of patients with BOR of CR or PR. Objective response rate, unconfirmed, is the proportion of patients with BOR of CR, PR, or uPR.
(§4) The term “TTR” as used herein refers to time to response, wherein TTR in months is calculated as response start date minus first dose date plus 1 day divided by 30.4375.
(§5) NCT04956640 includes Phase 1a dose escalation (Part A of NCT04956640, see Table 3) followed by a Phase 1b dose expansion (Parts B to E of NCT04956640, see Table 4). […] Phase 1b dose expansion will include 12 cohorts (See Table 4) to further evaluate safety and clinical activity.

[2] = system: KRAS G12C-mutant advanced NSCLC; assay: NCT04956640 Phase 1b Cohort B4 (with pembrolizumab) clinical response (BOR, ORR, DCR, DOR, TTR, % change from baseline, treatment duration); assay type: in vivo, human
Experimental: as §1, §2, §3, §4

[3] = system: KRAS G12C-mutant advanced solid tumors; assay: NCT04956640 Phase 1a monotherapy clinical response (BOR, ORR, DCR, DOR, TTR, % change from baseline, treatment duration); assay type: in vivo, human; settings: for TOS in Months, Median / TOT in Months of the compound of Formula I, Median / Time on Study (TOS) in Months, Mean / Time on Treatment (TOT) in Months of the compound of Formula I, Mean: Phase 1a
Experimental: as §1, §2, §3, §4, §5

[4] = Total (N = 25), Cohort B4, April 2023
[5] = combination with pembrolizumab, Total (N = 25), Cohort B4, April 2023
[6] = combination with pembrolizumab, starting dose 50 mg BID (N = 5), Cohort B4, April 2023
[7] = combination with pembrolizumab, starting dose 100 mg BID (N = 14), Cohort B4, April 2023
[8] = combination with pembrolizumab, starting dose 150 mg BID (N = 6), Cohort B4, April 2023
[9] = starting dose 50 mg BID (N = 5), Cohort B4, April 2023
[10] = starting dose 100 mg BID (N = 14), Cohort B4, April 2023
[11] = starting dose 150 mg BID (N = 6), Cohort B4, April 2023
[12] = April 2023, starting dose 50 mg BID (N = 16)
[13] = April 2023, starting dose 100 mg BID (N = 32)
[14] = April 2023, starting dose 150 mg BID (N = 48)
[15] = April 2023, starting dose 200 mg BID (N = 13)

Compound: C=CC(=O)N1CCN2C(=O)c3cc(F)c(-c4ccc(F)c5sc(N)c(C#N)c45)c(Cl)c3OCC[C@H]2C1 (single isomer, unassigned) [Formula I]
- Median time on treatment [1]: 1.8 months
- TOS in Months, Max [2, 4]: 9.79 Months
- TOS in Months, Median [2, 4]: 4.76 Months
- TOS in Months, Min [2, 4]: 0.33, Months
- TOS in Months, Q1 [2, 4]: 2.40, Months
- TOS in Months, Q3 [2, 4]: 6.74 Months
- TOT in Months of any treatment, Min [2, 4]: 0.33, Months
- TOT in Months of any treatment, Q1 [2, 4]: 1.41, Months
- TOT in Months of the compound of Formula I, Min [2, 4]: 0.33, Months
- TOT in Months of the compound of Formula I, Q1 [2, 4]: 1.41, Months
- Time on Study (TOS) in Months, Mean [2, 4]: 4.76 Months
- Time on Treatment (TOT) in Months of any treatment, Mean [2, 4]: 4.17 Months
- Time on Treatment (TOT) in Months of the compound of Formula I, Mean [2, 4]: 4.17 Months
- TOT in Months of Combination, Min [2, 5]: 0.33, Months
- TOT in Months of Combination, Q1 [2, 5]: 1.25, Months
- TOT in Months of Combination, Min [2, 6]: 0.72, Months
- TOT in Months of Combination, Q1 [2, 6]: 2.10, Months
- TOT in Months of Combination, Median [2, 7]: 2.30 Months
- TOT in Months of Combination, Min [2, 7]: 0.33, Months
- TOT in Months of Combination, Q1 [2, 7]: 0.85, Months
- TOT in Months of Combination, Min [2, 8]: 0.72, Months
- TOT in Months of Combination, Q1 [2, 8]: 1.45, Months
- Median time on treatment ([2]; human, in vivo): 2.5 months
- patients remain ongoing ([2]; human, in vivo): 100%
- TOS in Months, Max [2, 9]: 5.42 Months
- TOS in Months, Median [2, 9]: 4.67 Months
- TOS in Months, Min [2, 9]: 3.19, Months
- TOS in Months, Q1 [2, 9]: 4.04, Months
- TOS in Months, Q3 [2, 9]: 4.76 Months
- TOT in Months of any treatment, Max [2, 9]: 4.76 Months
- TOT in Months of any treatment, Min [2, 9]: 1.41, Months
- TOT in Months of any treatment, Q1 [2, 9]: 2.79, Months
- TOT in Months of the compound of Formula I, Max [2, 9]: 4.76 Months
- TOT in Months of the compound of Formula I, Min [2, 9]: 1.41, Months
- TOT in Months of the compound of Formula I, Q1 [2, 9]: 2.79, Months
- Time on Study (TOS) in Months, Mean [2, 9]: 4.42 Months
- Time on Treatment (TOT) in Months of any treatment, Mean [2, 9]: 3.54 Months
- Time on Treatment (TOT) in Months of the compound of Formula I, Mean [2, 9]: 3.54 Months
- TOS in Months, Max [2, 10]: 9.79 Months
- TOS in Months, Median [2, 10]: 2.53 Months
- TOS in Months, Min [2, 10]: 0.33, Months
- TOS in Months, Q1 [2, 10]: 0.85, Months
- TOS in Months, Q3 [2, 10]: 5.91 Months
- TOT in Months of any treatment, Median [2, 10]: 2.53 Months
- TOT in Months of any treatment, Min [2, 10]: 0.33, Months
- TOT in Months of any treatment, Q1 [2, 10]: 0.85, Months
- TOT in Months of the compound of Formula I, Median [2, 10]: 2.53 Months
- TOT in Months of the compound of Formula I, Min [2, 10]: 0.33, Months
- TOT in Months of the compound of Formula I, Q1 [2, 10]: 0.85, Months
- Time on Study (TOS) in Months, Mean [2, 10]: 4.02 Months
- Time on Treatment (TOT) in Months of any treatment, Mean [2, 10]: 3.81 Months
- Time on Treatment (TOT) in Months of the compound of Formula I, Mean [2, 10]: 3.81 Months
- TOS in Months, Max [2, 11]: 8.34 Months
- TOS in Months, Median [2, 11]: 7.34 Months
- TOS in Months, Min [2, 11]: 4.44, Months
- TOS in Months, Q1 [2, 11]: 4.86, Months
- TOS in Months, Q3 [2, 11]: 8.18 Months
- TOT in Months of any treatment, Median [2, 11]: 5.95 Months
- TOT in Months of any treatment, Min [2, 11]: 0.95, Months
- TOT in Months of any treatment, Q1 [2, 11]: 4.86, Months
- TOT in Months of any treatment, Q3 [2, 11]: 7.13 Months
- TOT in Months of the compound of Formula I, Median [2, 11]: 5.95 Months
- TOT in Months of the compound of Formula I, Min [2, 11]: 0.95, Months
- TOT in Months of the compound of Formula I, Q1 [2, 11]: 4.86, Months
- TOT in Months of the compound of Formula I, Q3 [2, 11]: 7.13 Months
- Time on Study (TOS) in Months, Mean [2, 11]: 6.75 Months
- Time on Treatment (TOT) in Months of any treatment, Mean [2, 11]: 5.53 Months
- Time on Treatment (TOT) in Months of the compound of Formula I, Mean [2, 11]: 5.53 Months
- TOS in Months, Median ([3]; April 2023, Total (N = 109)): 6.08 Months
- TOT in Months of the compound of Formula I, Median ([3]; April 2023, Total (N = 109)): 4.11 Months
- Time on Study (TOS) in Months, Mean ([3]; April 2023, Total (N = 109)): 6.88 Months
- Time on Treatment (TOT) in Months of the compound of Formula I, Mean ([3]; April 2023, Total (N = 109)): 5.16 Months
- TOS in Months, Median [3, 12]: 8.95 Months
- TOT in Months of the compound of Formula I, Median [3, 12]: 4.99 Months
- Time on Study (TOS) in Months, Mean [3, 12]: 9.74 Months
- Time on Treatment (TOT) in Months of the compound of Formula I, Mean [3, 12]: 6.65 Months
- TOS in Months, Median [3, 13]: 6.67 Months
- TOT in Months of the compound of Formula I, Median [3, 13]: 4.16 Months
- Time on Study (TOS) in Months, Mean [3, 13]: 6.71 Months
- Time on Treatment (TOT) in Months of the compound of Formula I, Mean [3, 13]: 5.11 Months
- TOS in Months, Median [3, 14]: 3.58 Months
- TOT in Months of the compound of Formula I, Median [3, 14]: 2.91 Months
- Time on Study (TOS) in Months, Mean [3, 14]: 5.31 Months
- Time on Treatment (TOT) in Months of the compound of Formula I, Mean [3, 14]: 4.50 Months
- TOS in Months, Median [3, 15]: 10.48 Months
- TOT in Months of the compound of Formula I, Median [3, 15]: 7.10 Months
- Time on Study (TOS) in Months, Mean [3, 15]: 9.57 Months
- Time on Treatment (TOT) in Months of the compound of Formula I, Mean [3, 15]: 5.91 Months
- Median time on treatment ([3]; human, in vivo): 3.8 months
